Molecules are shown by their SMILES. Counter-ions that a name gives are not always drawn. The list shows a part of the results. Small differences around the control level are noise.

In the test the test system is hPSC-derived cortical neurons (WA09). As to the kind of experiment: nucleus roundness z-score vs screen plate; higher = rounder nuclei (more mature). Conditions: 5 µM; treatment: days 7-14 after plating, readout day 21.
In turn, `CCOC(=O)C1=C(C)NC(C)=C(C(=O)OC)C1c1cccc([N+](=O)[O-])c1` (centres undefined) [Nitrendipine] gave a nucleus roundness z-score of -1.25.

Take `C[C@H](Cn1cnc2c(N)ncnc21)OCP(=O)(O)O` [Tenofovir]: the nucleus roundness z-score was -0.352.

Molecule `C=C1CC[C@H](O)C/C1=C/C=C1\CCC[C@]2(C)[C@@H]([C@H](C)CCCC(C)C)CC[C@@H]12` [Vitamin D3] came in with a nucleus roundness z-score of -0.534.

As to `CCCCC(=O)O[C@H]1CC[C@H]2[C@@H]3CCc4cc(O)ccc4[C@H]3CC[C@]12C` [Estradiol valerate], the nucleus roundness z-score was 0.724.

Take `O=C(O)c1ccc(-c2c[nH]c3ncc(-c4ccccc4)cc23)cc1C1CCCC1`: the nucleus roundness z-score was 0.0495.

Turning to `COc1cc([C@@H]2c3cc4c(cc3[C@@H](O[C@@H]3O[C@@H]5CO[C@@H](C)O[C@H]5[C@H](O)[C@H]3O)[C@H]3COC(=O)[C@H]23)OCO4)cc(OC)c1O` [Etoposide], the nucleus roundness z-score was determined as 1.44.

The molecule `Cc1cc(N2CCOCC2)cc2[nH]c(-c3c(NC[C@@H](O)c4cccc(Cl)c4)cc[nH]c3=O)nc12` yielded a nucleus roundness z-score of -0.114.

Consider `CC(=O)OCC(=O)[C@@]1(O)CC[C@H]2[C@@H]3CCC4=CC(=O)C=C[C@]4(C)[C@H]3[C@@H](O)C[C@@]21C` [Prednisolone Acetate], for which the nucleus roundness z-score is -0.463.

In turn, `Cc1cc(Nc2nc(N[C@@H](C)c3ccc(F)cc3)c(C#N)cc2F)n[nH]1` had a nucleus roundness z-score of -1.62.

For the molecule `NC(=O)NO` [Hydroxyurea], the nucleus roundness z-score is -0.291.

With `Cc1onc(-c2ccccc2)c1-c1ccc(S(N)(=O)=O)cc1` [Valdecoxib], the nucleus roundness z-score was determined as 0.254.

With `O=C(O)/C=C/c1ccc(O)c(O)c1` [Caffeic Acid], the nucleus roundness z-score turned out to be 0.568.

In turn, `CC[C@]1(O)C[C@@H]2CN(CCc3c([nH]c4ccccc34)[C@@](C(=O)OC)(c3cc4c(cc3OC)N(C)[C@H]3[C@@](O)(C(=O)OC)[C@H](OC(C)=O)[C@]5(CC)C=CCN6CC[C@]43[C@@H]65)C2)C1` [Vinblastine sulfate] yielded a nucleus roundness z-score of -5.44.

`CC1(C)CC(=O)c2c(C(F)(F)F)nn(-c3ccc(C(N)=O)c(N[C@H]4CC[C@H](O)CC4)c3)c2C1`: the nucleus roundness z-score is -5.06.

The molecule `CCN(Cc1ccncc1)C(=O)C(CO)c1ccccc1` (centres undefined) [Tropicamide] gave a nucleus roundness z-score of 0.0845.

`COc1cc2nc(N3CCCN(C)CC3)nc(NC3CCN(Cc4ccccc4)CC3)c2cc1OC` gave a nucleus roundness z-score of 0.7.

`c1ccc(CNc2ncnc3[nH]cnc23)cc1` [6-Benzylaminopurine] came in with a nucleus roundness z-score of -1.88.

Molecule `CN(C)[C@@H]1C(O)=C(C(N)=O)C(=O)[C@@]2(O)C(O)=C3C(=O)c4c(O)ccc(Cl)c4[C@@H](O)[C@H]3C[C@@H]12` [Demeclocycline HCl] came in with a nucleus roundness z-score of -0.145.

Molecule `CCCCCCCCCCCCCCCC(=O)OC[C@H](O)[C@H]1OC(=O)C(O)=C1O` [L-Ascorbyl 6-palmitate] returned a nucleus roundness z-score of -0.808.

Molecule `Clc1ccc(C(c2c[nH]c3ccccc23)c2c[nH]c3ccccc23)cc1` returned a nucleus roundness z-score of -5.17.

Regarding `CC(C)(C)c1cc(C(=O)C(C#N)=NNc2cccc(Cl)c2)no1`, the nucleus roundness z-score came out at 0.207.

Molecule `C[C@H]1CNCCCN1S(=O)(=O)c1cccc2cncc(F)c12` [Ripasudil (K-115) hydrochloride dihydrate] displayed a nucleus roundness z-score of -3.1.

Molecule `Clc1ccc(C(Cn2ccnc2)OCc2csc3c(Cl)cccc23)c(Cl)c1` (centres undefined) [Sertaconazole nitrate] registered a nucleus roundness z-score of -0.424.

In the case of `CN1CC[C@H](c2c(O)cc(O)c3c(=O)cc(-c4ccccc4Cl)oc23)[C@H](O)C1` [Flavopiridol HCl], the nucleus roundness z-score was -9.13.

`Cc1cc(F)c(Nc2ncnc3cc(OCc4ccccc4)ccc23)cc1O` came in with a nucleus roundness z-score of 0.563.

Turning to `CCn1c(=O)c2c(nc(/C=C/c3ccc(OC)c(OC)c3)n2C)n(CC)c1=O` [Istradefylline], the nucleus roundness z-score came out at 0.884.

Regarding `O=S(=O)(O)c1cc(O)ccc1O` [Ethamsylate], the nucleus roundness z-score was -0.406.

Molecule `CCOc1ccc(NC(C)=O)cc1` [Phenacetin] gave a nucleus roundness z-score of 0.0166.

As to `CC[C@H](C)n1cc(C)c2c(C(=O)NCc3c(C)cc(C)[nH]c3=O)cc(-c3ccc(N4CCNCC4)nc3)cc21`, the nucleus roundness z-score was found to be 0.806.

For the molecule `CO[C@H]1C(=O)[C@]2(C)[C@@H](OC)C[C@H]3OC[C@@]3(OC(C)=O)[C@H]2[C@H](OC(=O)c2ccccc2)[C@]2(O)C[C@H](OC(=O)[C@H](O)[C@@H](NC(=O)OC(C)(C)C)c3ccccc3)C(C)=C1C2(C)C` [Cabazitaxel], the nucleus roundness z-score was -2.73.

Molecule `COC(=O)CCc1ccc(OCC(O)CNC(C)C)cc1` (centres undefined) [Esmolol HCl] gave a nucleus roundness z-score of -2.68.

For `COCCOC(=O)C1=C(C)NC(C)=C(C(=O)OC(C)C)C1c1cccc([N+](=O)[O-])c1` (centres undefined) [Nimodipine], the nucleus roundness z-score was -1.

On to `C[C@@H]1COCCN1c1cc(C2([S@](C)(=N)=O)CC2)nc(-c2cc[nH]c3nccc2-3)n1`, for which the nucleus roundness z-score was -1.68.

`CCOc1ccc2nc(S(N)(=O)=O)sc2c1` [Ethoxzolamide] registered a nucleus roundness z-score of 0.126.

For `COC(=O)C1=C(C)NC(C)=C(C(=O)OCCN2CCN(C(c3ccccc3)c3ccccc3)CC2)C1c1cccc([N+](=O)[O-])c1` (centres undefined) [Manidipine], the nucleus roundness z-score is -2.03.

Molecule `Oc1c(Br)cc(Br)c2cccnc12` [Broxyquinoline] yielded a nucleus roundness z-score of 0.731.

Take `C[C@H](CCC(=O)O)[C@H]1CC[C@H]2[C@@H]3[C@H](O)C[C@@H]4C[C@H](O)CC[C@]4(C)[C@H]3CC[C@]12C` [Chenodeoxycholic Acid]: the nucleus roundness z-score amounted to 0.774.

`Oc1ccc(Cl)c2cccnc12` [Cloxiquine] displayed a nucleus roundness z-score of -2.47.

`CCOC(=O)c1c2c3c(cccc3[nH]c1=O)C(=O)c1ccccc1-2` yielded a nucleus roundness z-score of -0.529.

The values are drawn from the supplement of paper PMC11348887.
